{"source": "PubChem BioAssay AID1259308 (NCATS, 2017)", "assay": "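Candidate targets for better recombinant protein yield in mammalian cells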 (primary screen)", "system": "human HEK293 embryonic kidney cells stably expressing firefly luciferase (HEK-CMV-Luc2-Hygro)", "reagent": "single siRNA against human genes, 0.8 pmol siRNA per well", "timing": "72 h", "measured": "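Reporter luminescence and viable-cell signal on separate replicate plates, given as percent of non-targeting control and median/MAD z-scores, plus per-cell luciferase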", "direction": "total luciferase, z-score: higher = more reporter protein produced", "active means": "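An siRNA counts as active if its total luciferase robust z-score exceeds 3; genes with two or more such siRNAs out of three were retested with fresh siRNAs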", "calls": "active = raised luciferase; inactive = no rise", "note": "The deposit covers about 59,000 reagents; this is an unselected part. About 1,510 of all reagents (2.6%) count as active. 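Calls use total luciferase alone and ignore viability, so some active siRNAs may act by altering cell number.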 Entries without a mark were called inactive. Not all columns of the deposit are shown. No sequences are given here."}
{"gene":"LINC02687","PubChem SID":"SID160766881","total luciferase, z-score":0.212}
{"gene":"LINC02687","PubChem SID":"SID160766882","total luciferase, z-score":-0.42}
{"gene":"LINC02687","PubChem SID":"SID160766883","total luciferase, z-score":-1.49}
{"gene":"SIX1","PubChem SID":"SID160716752","total luciferase, z-score":-0.323}
{"gene":"SIX1","PubChem SID":"SID160716753","total luciferase, z-score":2.21}
{"gene":"SIX1","PubChem SID":"SID160734077","total luciferase, z-score":-0.546}
{"gene":"MBL2","PubChem SID":"SID160731220","total luciferase, z-score":1.52}
{"gene":"MBL2","PubChem SID":"SID160777012","total luciferase, z-score":-0.113}
{"gene":"MBL2","PubChem SID":"SID160777013","total luciferase, z-score":-1.85}
{"gene":"NPVF","PubChem SID":"SID160747474","total luciferase, z-score":-0.375}
{"gene":"NPVF","PubChem SID":"SID160747475","total luciferase, z-score":-0.924}
{"gene":"NPVF","PubChem SID":"SID160747476","total luciferase, z-score":-0.822}
{"gene":"KIF13A","PubChem SID":"SID160747349","total luciferase, z-score":-0.532}
{"gene":"KIF13A","PubChem SID":"SID160747350","total luciferase, z-score":-0.0356}
{"gene":"KIF13A","PubChem SID":"SID160747351","total luciferase, z-score":-0.0656}
{"gene":"CDH8","PubChem SID":"SID160740544","total luciferase, z-score":0.93}
{"gene":"CDH8","PubChem SID":"SID160740555","total luciferase, z-score":-1.37}
{"gene":"CDH8","PubChem SID":"SID160740565","total luciferase, z-score":0.447}
{"gene":"HSPB7","PubChem SID":"SID160730966","total luciferase, z-score":-1.19}
{"gene":"HSPB7","PubChem SID":"SID160738424","total luciferase, z-score":"3.12 (active)"}
{"gene":"HSPB7","PubChem SID":"SID160738425","total luciferase, z-score":-1.51}
{"gene":"IL10RA","PubChem SID":"SID160775754","total luciferase, z-score":-0.0148}
{"gene":"IL10RA","PubChem SID":"SID160775755","total luciferase, z-score":-0.649}
{"gene":"IL10RA","PubChem SID":"SID160775756","total luciferase, z-score":1.18}
{"gene":"LRRC3B","PubChem SID":"SID160755337","total luciferase, z-score":0.443}
{"gene":"LRRC3B","PubChem SID":"SID160755338","total luciferase, z-score":0.593}
{"gene":"LRRC3B","PubChem SID":"SID160755339","total luciferase, z-score":-0.135}
{"gene":"RSPH14","PubChem SID":"SID160738479","total luciferase, z-score":-0.023}
{"gene":"RSPH14","PubChem SID":"SID160738480","total luciferase, z-score":-0.62}
{"gene":"RSPH14","PubChem SID":"SID160738481","total luciferase, z-score":1.02}
{"gene":"GPRC5D","PubChem SID":"SID160743729","total luciferase, z-score":-0.0741}
{"gene":"GPRC5D","PubChem SID":"SID160743730","total luciferase, z-score":0.648}
{"gene":"GPRC5D","PubChem SID":"SID160743731","total luciferase, z-score":0.112}
